Results from patent publication US8367349B2, “Methods for identifying modulators of LRRK2” (Medical Research Council, priority 2010, dated 2013).
At least one structure is not confirmed: it was looked up by name or label, or the drawing left a doubt.

The chains behind the UniProt entries cited, without tags or fusion partners. Where a name states a change or a piece, a line headed by the entry shows the natural chain unless it says otherwise.
UniProt Q5S007: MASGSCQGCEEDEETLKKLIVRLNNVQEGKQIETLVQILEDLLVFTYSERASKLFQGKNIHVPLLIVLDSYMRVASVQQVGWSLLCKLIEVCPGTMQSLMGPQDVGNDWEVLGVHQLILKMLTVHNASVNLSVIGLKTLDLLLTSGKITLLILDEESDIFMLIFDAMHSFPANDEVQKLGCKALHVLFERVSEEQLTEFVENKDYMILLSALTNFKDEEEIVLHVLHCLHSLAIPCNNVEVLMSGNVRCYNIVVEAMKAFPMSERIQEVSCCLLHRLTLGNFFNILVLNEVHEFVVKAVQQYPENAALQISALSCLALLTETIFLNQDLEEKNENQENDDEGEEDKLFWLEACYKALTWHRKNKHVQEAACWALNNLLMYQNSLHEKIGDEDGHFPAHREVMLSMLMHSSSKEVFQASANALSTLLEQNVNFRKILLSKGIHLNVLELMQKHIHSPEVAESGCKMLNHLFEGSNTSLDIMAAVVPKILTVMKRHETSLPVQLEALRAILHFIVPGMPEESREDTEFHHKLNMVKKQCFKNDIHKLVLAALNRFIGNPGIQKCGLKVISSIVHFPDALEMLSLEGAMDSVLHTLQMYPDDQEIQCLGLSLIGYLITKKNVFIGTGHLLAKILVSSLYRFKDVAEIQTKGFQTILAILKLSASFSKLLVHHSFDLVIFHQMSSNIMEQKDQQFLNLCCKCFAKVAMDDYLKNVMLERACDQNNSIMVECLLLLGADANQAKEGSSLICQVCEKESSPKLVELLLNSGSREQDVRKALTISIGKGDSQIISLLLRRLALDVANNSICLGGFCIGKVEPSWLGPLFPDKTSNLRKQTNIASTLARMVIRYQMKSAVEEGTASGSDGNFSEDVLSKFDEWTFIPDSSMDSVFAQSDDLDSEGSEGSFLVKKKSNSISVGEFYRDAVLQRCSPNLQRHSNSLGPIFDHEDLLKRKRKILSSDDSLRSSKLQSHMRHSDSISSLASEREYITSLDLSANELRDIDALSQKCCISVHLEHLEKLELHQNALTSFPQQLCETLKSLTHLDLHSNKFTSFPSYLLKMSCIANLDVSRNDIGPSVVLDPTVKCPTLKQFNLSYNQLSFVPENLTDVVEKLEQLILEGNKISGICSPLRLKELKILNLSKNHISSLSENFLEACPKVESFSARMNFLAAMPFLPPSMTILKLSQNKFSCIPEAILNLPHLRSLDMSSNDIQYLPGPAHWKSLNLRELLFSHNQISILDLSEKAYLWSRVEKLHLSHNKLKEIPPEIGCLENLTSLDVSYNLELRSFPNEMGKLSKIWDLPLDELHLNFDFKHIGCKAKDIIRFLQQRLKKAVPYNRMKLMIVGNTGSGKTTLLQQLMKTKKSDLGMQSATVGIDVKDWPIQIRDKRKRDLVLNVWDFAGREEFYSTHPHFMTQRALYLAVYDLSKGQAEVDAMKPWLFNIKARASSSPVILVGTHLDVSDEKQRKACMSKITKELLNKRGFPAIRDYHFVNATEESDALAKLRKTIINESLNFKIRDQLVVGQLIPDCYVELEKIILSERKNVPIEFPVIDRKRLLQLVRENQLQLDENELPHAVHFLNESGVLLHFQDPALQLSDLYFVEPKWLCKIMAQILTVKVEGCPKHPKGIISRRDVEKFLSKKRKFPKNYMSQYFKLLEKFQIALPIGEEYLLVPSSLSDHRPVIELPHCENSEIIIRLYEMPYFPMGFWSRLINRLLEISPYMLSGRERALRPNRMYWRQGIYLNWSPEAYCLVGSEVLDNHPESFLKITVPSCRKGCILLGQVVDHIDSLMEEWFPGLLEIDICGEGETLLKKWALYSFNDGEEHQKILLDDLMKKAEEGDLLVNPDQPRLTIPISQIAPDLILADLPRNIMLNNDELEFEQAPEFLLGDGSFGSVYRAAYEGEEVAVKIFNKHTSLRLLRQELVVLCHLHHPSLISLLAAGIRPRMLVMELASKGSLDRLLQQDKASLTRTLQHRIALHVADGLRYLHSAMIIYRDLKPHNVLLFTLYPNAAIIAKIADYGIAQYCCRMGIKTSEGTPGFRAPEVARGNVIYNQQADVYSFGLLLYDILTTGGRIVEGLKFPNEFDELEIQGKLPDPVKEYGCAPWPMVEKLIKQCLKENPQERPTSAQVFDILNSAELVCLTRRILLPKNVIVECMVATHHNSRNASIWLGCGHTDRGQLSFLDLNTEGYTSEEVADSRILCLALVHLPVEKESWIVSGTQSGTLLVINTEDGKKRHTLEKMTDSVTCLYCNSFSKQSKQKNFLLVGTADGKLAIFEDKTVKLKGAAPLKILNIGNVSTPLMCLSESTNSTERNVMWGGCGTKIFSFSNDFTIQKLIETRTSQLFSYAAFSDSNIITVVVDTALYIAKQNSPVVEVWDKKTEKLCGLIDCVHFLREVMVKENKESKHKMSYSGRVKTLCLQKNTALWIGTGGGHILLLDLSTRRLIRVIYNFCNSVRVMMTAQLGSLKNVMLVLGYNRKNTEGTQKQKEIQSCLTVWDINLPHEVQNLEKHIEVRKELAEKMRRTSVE

Molecular target: T1, GFP-LRRK2 (Homo sapiens, UniProt Q5S007)
T1 construct: immunoprecipitates of stably expressed full length GFP-LRRK2; expressed in transfected cells
Test: Kinase inhibitor panel: Ser910/Ser935 phosphorylation in HEK293 cells stably expressing GFP-LRRK2
Format: cell-based
Conditions: HEK293 GFP-LRRK2, 15 μM, 90 minutes
Description: FIG. 16. HEK-293 stably expressing GFP-LRRK2 were treated with DMSO, or the following inhibitors dissolved in DMSO, at the indicated concentration for 90 minutes. […] Total LRRK2 was assessed by GFP immunoblot. The immunoblots shown are representative of 2 independent experiments. Cell transfections were performed by the polyethylenimine method. Where inhibitors are utilized, they were dissolved in DMSO and used at the indicated concentrations with an equivalent volume of DMSO used as a control. The final concentration of DMSO in the culture medium was never more than 0.1% (v/v). Inhibitors were added to the culture medium for the indicated times before lysis. Per 15 cm dish, HEK 293 cells were lysed with 1.0 ml and 3T3 cells were lysed with 0.6 ml of lysis buffer supplemented with the indicated detergent and clarified by centrifugation at 16,000×g at 4° C. for 10 minutes. After induction and inhibitor treatment, T-REx-GFP expressing cells were lysed at room temperature with SDS lysis buffer after washing with PBS. […] Protein concentrations were determined using the Bradford method with BSA as the standard. […] Immune complexes were washed twice with lysis buffer supplemented with 0.3 M NaCl and twice with Buffer A. Precipitates were either used as a source of kinase or immediately analyzed by immunoblot. […] DIG 14-3-3 was detected with HRP labelled anti-DIG Fab fragments (Roche).

Oc1c2ccccc2c2c3c(cccc13)N=N2 [SP600125]
dephosphorylation of Ser910 and Ser935: Some dephosphorylation
